PubChem BioAssay AID1347075 (National Center for Advancing Translational Sciences (NCATS), 2019)
In all, about 400,000 compounds went through this assay and about 5,500 (1.4%) were called active. Inconclusive results, whose numbers are uncertain, are shown with a selection of clear calls. Calls come from the whole dose curve; as a rule, active = well fitted cell-killing curve with a large enough effect; inconclusive = small, poorly fitted or top-dose-only effect, or effect the other way; inactive = flat fitted curve, though single readings scatter. Potencies of inconclusive entries are doubtful fits and often do not repeat.

Experiment: qHTS assay for MDR1-selective chemotherapeutics: Primary screen using the parental adenocarcinoma cell KB-3-1; note: nearly all actives have a fitted effect of over 60% in size
Conditions: KB-3-1 viability, CellTiter-Glo ATP luminescence, 72 h; activity change, negative = cytotoxic: at 46.1 µM (top of the series)
Method in brief: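 Viability of parental KB-3-1 cells, measured by CellTiter-Glo luminescence, followed a 72 h incubation at 37 °C with pinned compounds in phenol-red-free DMEM containing 10% FBS.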
% is set by controls: 0 for no effect and ±100 for the full control effect; potency is the fitted concentration of half-maximal effect.

| SMILES | activity change, negative = cytotoxic | Potency |
| --- | --- | --- |
| Cc1ccc(C(=O)Nc2nnc(NC(=S)Nc3ccccc3)s2)cc1 | inactive: 1.68% |  |
| COc1ccccc1OCC(=O)Nc1ccc(NC(=O)COc2ccccc2OC)cc1 |  | inconclusive: 29.1 µM [cytotoxic, partial curve, poor fit] |
| O=C(NCc1cccnc1)C(=O)Nc1nc(-c2ccccc2)cs1 |  | inconclusive: 20.6 µM [cytotoxic, single point] |
| O=S(=O)(CCSc1nc2ccccc2s1)c1nc2ccccc2s1 |  | inconclusive: 29.1 µM [cytotoxic, single point] |
| N#Cc1c(N)[nH]c(=S)c(C#N)c1-c1ccccc1 | inactive: 23.3% |  |
| CCOC(=O)c1cnc2c(ccc3ccccc32)c1Nc1ccccc1OC |  | inconclusive: 29.1 µM [rising, single point] |
| CCCCC(=O)NC(c1cccc([N+](=O)[O-])c1)c1ccc2cccnc2c1O (stereo not given) |  | inconclusive: 18.4 µM [cytotoxic, partial curve] |
| c1ccc(CCC2CCCCN2Cc2nc(-c3ccc4c(c3)OCO4)no2)nc1 (stereo not given) |  | inconclusive: 25.9 µM [cytotoxic, partial curve, poor fit] |
| CCOC(=O)C(C)OC(=O)C1=C(C)NC(=O)NC1c1ccc2c(c1)OCO2 (stereo not given) | inactive: -13.2% |  |
| Cc1ccc2c(c1)c(=O)c(C(=O)c1ccc3c(c1)OCO3)cn2Cc1cccc(F)c1 | inactive: -2.97% |  |
| CCc1nnc(NC(=O)CSc2nc(C)c3c(c2C#N)CCCC3)s1 |  | inconclusive: 35.5 µM [cytotoxic, single point] |
| CCc1nc2c(OCCC3CCCCC3)cccn2c1N(C)C(=O)CC(C)C |  | inconclusive: 29.1 µM [cytotoxic, single point] |
| CCN(CC)CCNC(=S)Nc1ccc2nc(N3CCCC3)cc(C)c2c1 |  | active: 14.6 µM |
| CCC1(C)Cc2ccccc2-c2nc(SCC(N)=O)[nH]c(=O)c21 (stereo not given) | inactive: 16.8% |  |
| O=C(NC(c1ccccc1)c1ccsc1)C1CCN(CCOc2ccc(Cl)cc2Cl)CC1 (stereo not given) | inactive: -0.215% |  |
| CSc1ccc(Cl)c(C(=O)Nc2ccc(Cl)cn2)c1 |  | active: 23.1 µM |
| CCCCc1c(-c2ccccc2OC)ncn1CCc1ccccc1Cl |  | inconclusive: 20.6 µM [cytotoxic, single point] |
| Cc1c(NC(=O)C(C)OC(=O)c2cc3c4ccccc4n(C)c3s2)c(=O)n(-c2ccccc2)n1C (stereo not given) |  | inconclusive: 25.9 µM [cytotoxic, single point] |
| CC(=O)C1CCC2C3CCC4=CC(=O)CCC4(C)C3(F)C(O)CC12C (stereo not given) |  | inconclusive: 20.6 µM [cytotoxic, single point] |
| CCCCOc1ccc(CNC(=O)c2ccc(-c3nc(CN4CCc5ccccc54)c(C)o3)cc2)cc1 |  | active: 18.4 µM |

Two entries picked at random from the list so far, as already listed:

| SMILES | activity change, negative = cytotoxic | Potency |
| --- | --- | --- |
| Cc1ccc2c(c1)c(=O)c(C(=O)c1ccc3c(c1)OCO3)cn2Cc1cccc(F)c1 | inactive: -2.97% |  |
| CC(=O)C1CCC2C3CCC4=CC(=O)CCC4(C)C3(F)C(O)CC12C (stereo not given) |  | inconclusive: 20.6 µM [cytotoxic, single point] |
